{"source": "the supplement of paper PMC8104966", "note": "Where “and” joins values, the source holds several entries; their conditions need not be identical. Identical values can stand only once. This is one part of the list. Repeats in this data set agree poorly, so a single value says little.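 U2OS cells carrying ACE2 were mixed with U2OS cells carrying full-length spike, and fusion was scored by imaging as the share of nuclei showing both cell types' fluorescent markers. A compound counts as an inhibitory hit when it is non-toxic and its fusion z-score falls below -3, meaning more than three standard deviations below the plate's DMSO wells.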"}
{"tested_on": "U2OS ACE2 x SARS-CoV-2 spike co-culture", "assay": "cell-cell fusion (fraction fused) z-score vs plate DMSO control; higher = more fusion", "settings": "30 µM; 5 h; toxicity class: non-toxic, passed QC"}
{"smiles": "O=C(O)c1cccnc1", "cell-cell fusion (z-score)": "inactive: 2.51"}
{"smiles": "C[C@@H]1CC2C3CCC4=CC(=O)C=C[C@]4(C)[C@@]3(F)[C@@H](O)C[C@]2(C)[C@@]1(O)C(=O)COP(=O)([O-])[O-].[Na+].[Na+]", "note": "(stereo partly drawn)", "cell-cell fusion (z-score)": "inactive: 1.44"}
{"smiles": "O=NN(CCCl)C(=O)NCCCl", "note": "[Carmustine]", "cell-cell fusion (z-score)": "inactive: 1.37"}
{"smiles": "Cc1ccsc1/C=C/C1=NCCCN1C.O=C(O)CC(O)(CC(=O)O)C(=O)O", "cell-cell fusion (z-score)": "inactive: 3.47"}
{"smiles": "CC(C)Oc1cccnc1N(C)C1CCN(Cc2ccccc2)CC1.O=C(O)/C=C\\C(=O)O", "cell-cell fusion (z-score)": "inactive: 1.11"}
{"smiles": "NC[C@H]1O[C@H](OC2[C@@H](N)C[C@@H](N)[C@H](O[C@H]3O[C@H](CO)[C@@H](O)[C@H](N)[C@H]3O)[C@H]2O)[C@H](O)[C@@H](O)[C@@H]1O.O=S(=O)(O)O", "note": "(stereo partly drawn)", "cell-cell fusion (z-score)": "inactive: 2.29"}
{"smiles": "CC12CCC3C(=CCc4cc(O)ccc43)C1CCC2=O", "note": "(stereo not drawn)", "cell-cell fusion (z-score)": "inactive: 1.48"}
{"smiles": "Cc1ncc(CO)c(CO)c1O", "note": "[Pyridoxine]", "cell-cell fusion (z-score)": "inactive: 2.16"}
{"smiles": "CCCC[N+]1(C)C2CC(OC(=O)[C@H](CO)c3ccccc3)CC1C1OC12.[Br-]", "note": "(single isomer, unassigned; (-)) [(-)-Scopolamine,n-Butyl-, bromide]", "cell-cell fusion (z-score)": "inactive: 1.2"}
{"smiles": "Cc1cc(C)cc(OCC2CNC(=O)O2)c1", "note": "(stereo not drawn) [Metaxalone]", "cell-cell fusion (z-score)": "inactive: 2.76"}
{"smiles": "COc1ccc(NC(=O)c2ccc(C(=N)N(C)C)cc2)c(C(=O)Nc2ccc(Cl)cn2)c1.O=C(O)/C=C\\C(=O)O", "note": "[Betrixaban maleate]", "cell-cell fusion (z-score)": "inactive: -1.16"}
{"smiles": "CN1C2CCC1CC(OC(=O)c1c[nH]c3ccccc13)C2.Cl", "note": "(stereo not drawn) [3-Tropanyl-indole-3-carboxylate hydrochloride]", "cell-cell fusion (z-score)": "inactive: 0.347"}
{"smiles": "CN1C2CCC1CC(OC(=O)c1c[nH]c3ccccc13)C2.Cl", "note": "(stereo not drawn)", "cell-cell fusion (z-score)": "inactive: 2.21"}
{"smiles": "O=C1CCc2cc(OCCCCc3nnnn3C3CCCCC3)ccc2N1", "cell-cell fusion (z-score)": "inactive: 2.26"}
{"smiles": "CCC1(c2ccccc2)C(=O)NCNC1=O", "note": "[Primidone]", "cell-cell fusion (z-score)": "inactive: 3.15"}
{"smiles": "CCOc1nc2cccc(C(=O)OC(C)OC(=O)OC3CCCCC3)c2n1Cc1ccc(-c2ccccc2-c2nnn[nH]2)cc1", "note": "(stereo not drawn)", "cell-cell fusion (z-score)": "inactive: 0.0899"}
{"smiles": "CC(=O)OC1CN2CCC1CC2", "note": "(stereo not drawn)", "cell-cell fusion (z-score)": "inactive: 1.6"}
{"smiles": "COc1cc(C)c(C(=O)Oc2cc(C)c(C(=O)O)c(O)c2C)c(OC)c1C", "cell-cell fusion (z-score)": "inactive: 2.73"}
{"smiles": "CC(=O)O[C@@H]1C[C@@]2(C)C(CC[C@@H]2C(C)=O)C2CCC3=CC(=O)CC[C@]3(C)C21", "note": "(stereo partly drawn)", "cell-cell fusion (z-score)": "inactive: 2.15"}
{"smiles": "CN1CCCC(n2nc(Cc3ccc(Cl)cc3)c3ccccc3c2=O)CC1.Cl", "note": "(stereo not drawn) [Azelastine hydrochloride]", "cell-cell fusion (z-score)": "inactive: 1.65"}
{"smiles": "C[N+](C)(C)CCO.Cn1c(=O)c2[n-]cnc2n(C)c1=O", "cell-cell fusion (z-score)": "inactive: -0.634"}
{"smiles": "Cl.Cl.Cl.Cl.NCCCNCCCCNCCCN", "note": "[Spermine tetrahydrochloride]", "cell-cell fusion (z-score)": "inactive: 1.86"}
{"smiles": "CCNc1nc2c(ncn2[C@H]2C[C@H](O)[C@@H](CO)O2)c(=O)[nH]1", "note": "[N2-Ethyl-2'-deoxyguanosine]", "cell-cell fusion (z-score)": "inactive: 1.48"}
{"smiles": "C[C@]12CC[C@@H]3c4ccc(O)cc4CC[C@H]3[C@@H]1CC[C@@H]2OC(=O)CCC1CCCC1", "note": "[Depofemin]", "cell-cell fusion (z-score)": "inactive: 3.18"}
{"smiles": "CN(C)CCC(c1ccc(Br)cc1)c1ccccn1.O=C(O)/C=C\\C(=O)O", "note": "(stereo not drawn)", "cell-cell fusion (z-score)": "inactive: 1.19"}
{"smiles": "CN(C)CC/C=C1\\c2ccccc2COc2ccccc21.Cl", "note": "[Doxepin hydrochloride]", "cell-cell fusion (z-score)": "inactive: 2.51"}
{"smiles": "COC1=C(OC)C(=O)C(C/C=C(\\C)CC/C=C(\\C)CC/C=C(\\C)CC/C=C(\\C)CC/C=C(\\C)CC/C=C(\\C)CC/C=C(\\C)CC/C=C(\\C)CC/C=C(\\C)CCC=C(C)C)=C(C)C1=O", "note": "[Coenzyme Q10(CoQ10)]", "cell-cell fusion (z-score)": "inactive: 0.725"}
{"smiles": "Cc1cn(C2CC(N=[N+]=[N-])C(CO)O2)c(=O)[nH]c1=O", "note": "(stereo not drawn)", "cell-cell fusion (z-score)": "inactive: 2.24"}
{"smiles": "Cl.Cl.Fc1cc(-c2cccc3ncc(-c4cnn(C5CCNCC5)c4)nc23)cc(F)c1CN1CCOCC1", "cell-cell fusion (z-score)": "inactive: 1.38 and inactive: 2.13"}
{"smiles": "C=C1C[C@@H]2[C@H](CC[C@]3(C)C(=O)CC[C@@H]23)[C@@]2(C)C=CC(=O)C=C12", "note": "[Exemestane]", "cell-cell fusion (z-score)": "inactive: 0.721"}
{"smiles": "COc1ccc([C@H]2COc3c(ccc(O)c3OC)C2)c(OC)c1O", "cell-cell fusion (z-score)": "inactive: 2.3"}
{"smiles": "CC(C)CC(=O)Nc1n[nH]c2c1CN(C(=O)C1CCN(C)CC1)C2(C)C", "cell-cell fusion (z-score)": "inactive: 2.09"}
{"smiles": "CC(C)CN(C[C@@H](O)[C@H](Cc1ccccc1)NC(=O)O[C@H]1CCOC1)S(=O)(=O)c1ccc(N)cc1", "note": "[Amprenavir]", "cell-cell fusion (z-score)": "inactive: 2.3"}
{"smiles": "Cn1c([N+](=O)[O-])cnc1COC(N)=O", "cell-cell fusion (z-score)": "inactive: 3.14"}
{"smiles": "O=C1OC(c2ccc(O)cc2)(c2ccc(O)cc2)c2ccccc21", "cell-cell fusion (z-score)": "inactive: 2.74"}
{"smiles": "NS(=O)(=O)c1ccc(-n2nc(C(F)(F)F)cc2-c2ccc(Cl)cc2)cc1", "cell-cell fusion (z-score)": "inactive: 1.87"}
{"smiles": "CC[C@H](c1cccc(O)c1)[C@@H](C)CN(C)C.Cl", "cell-cell fusion (z-score)": "inactive: 2.56"}
{"smiles": "CS(=O)(=O)O.OC(CCN1CCCCC1)(c1ccccc1)c1ccccc1", "cell-cell fusion (z-score)": "inactive: 2.36"}
{"smiles": "CC(=O)OCC(=O)[C@@]1(O)CC[C@H]2[C@@H]3CCC4=CC(=O)C=C[C@]4(C)[C@H]3[C@@H](O)C[C@@]21C", "note": "[Prednisolone-21-acetate]", "cell-cell fusion (z-score)": "inactive: 1.95"}
{"smiles": "COc1cc(SC)ccc1C(=O)N1CCC(Cc2ccccc2)CC1", "cell-cell fusion (z-score)": "inactive: 3.05"}
{"smiles": "NC[C@@H]1O[C@H](O[C@H]2[C@@H](O)[C@H](O[C@@H]3[C@@H](O)[C@H](N)C[C@H](N)[C@H]3O[C@H]3O[C@H](CN)[C@@H](O)[C@H](O)[C@H]3N)O[C@@H]2CO)[C@H](N)[C@@H](O)[C@@H]1O.O=S(=O)(O)O", "note": "[Neomycin Sulphate B]", "cell-cell fusion (z-score)": "inactive: 2.11"}
{"smiles": "Nc1c2c(nc3ccccc13)CCCC2O.O=C(O)/C=C\\C(=O)O", "note": "(stereo not drawn)", "cell-cell fusion (z-score)": "inactive: 1.68"}
{"smiles": "S=C([S-])OC1CC2CC1C1CCCC21.[K+]", "note": "[D-609 potassium]", "cell-cell fusion (z-score)": "active: -4.12"}
{"smiles": "CCCCC(=O)O[C@H]1CCC2C3CCc4cc(O)ccc4C3CC[C@@]21C", "note": "(stereo partly drawn)", "cell-cell fusion (z-score)": "inactive: 1.23"}
{"smiles": "COc1ccc(C2CNC(=O)C2)cc1OC1CCCC1", "note": "(stereo not drawn) [Rolipram]", "cell-cell fusion (z-score)": "inactive: 0.997"}
{"smiles": "CN(C)CC[C@@H](c1ccc(Cl)cc1)c1ccccn1.O=C(O)/C=C\\C(=O)O", "note": "[Dexchlorpheniramine Maleate]", "cell-cell fusion (z-score)": "inactive: 1.92"}
{"smiles": "COc1ccccc1OCC(O)CN1CCN(CC(=O)Nc2c(C)cccc2C)CC1.Cl.Cl", "note": "(stereo not drawn) [Ranolazine dihydrochloride]", "cell-cell fusion (z-score)": "inactive: 2.07"}
{"smiles": "C[C@H]1COC2=C1C(=O)C(=O)c1c2ccc2c1CCCC2(C)C", "cell-cell fusion (z-score)": "inactive: 1.9"}
{"smiles": "CC(C)(C#N)c1cc(Cn2cncn2)cc(C(C)(C)C#N)c1", "note": "[Anastrozole]", "cell-cell fusion (z-score)": "inactive: 4.26"}
{"smiles": "O=c1n(Cl)c(=O)n(Cl)c(=O)n1Cl", "cell-cell fusion (z-score)": "inactive: 0.81"}
{"smiles": "CCOc1ccc(Cc2cc([C@@H]3O[C@H](CO)[C@@H](O)[C@H](O)[C@H]3O)ccc2Cl)cc1.C[C@H](O)CO.O", "note": "[Dapagliflozin ((2S)-1,2-propanediol, hydrate)]", "cell-cell fusion (z-score)": "inactive: 1.37"}
{"smiles": "N.N.[Cl][Pt][Cl]", "note": "[Cisplatin]", "cell-cell fusion (z-score)": "inactive: 1.81"}
{"smiles": "OCc1ccccn1", "cell-cell fusion (z-score)": "inactive: 0.434"}
{"smiles": "O=C(NCCCN1CCOCC1)c1ccc(Cl)cc1", "cell-cell fusion (z-score)": "inactive: 2.13"}
{"smiles": "CNS(=O)(=O)CCc1ccc2[nH]cc(C3CCN(C)CC3)c2c1.Cl", "note": "[Naratriptan hydrochloride]", "cell-cell fusion (z-score)": "inactive: 1.83"}
{"smiles": "O=C(OC[C@H]1O[C@@H](OC(=O)c2cc(O)c(O)c(OC(=O)c3cc(O)c(O)c(O)c3)c2)[C@H](OC(=O)c2cc(O)c(O)c(OC(=O)c3cc(O)c(O)c(O)c3)c2)[C@@H](OC(=O)c2cc(O)c(O)c(OC(=O)c3cc(O)c(O)c(O)c3)c2)[C@@H]1OC(=O)c1cc(O)c(O)c(OC(=O)c2cc(O)c(O)c(O)c2)c1)c1cc(O)c(O)c(OC(=O)c2cc(O)c(O)c(O)c2)c1", "note": "[Tannic acid]", "cell-cell fusion (z-score)": "inactive: 1.05"}
{"smiles": "C[N+](C)(C)CCOC(=O)CCC(=O)OCC[N+](C)(C)C.O.O.[Cl-].[Cl-]", "note": "[Succinylcholine Chloride Dihydrate]", "cell-cell fusion (z-score)": "inactive: 2.06"}
{"smiles": "O=C1CC[C@@H](C(=O)O)N1", "cell-cell fusion (z-score)": "inactive: 2.77"}
{"smiles": "O=c1c(O)cccc2ccc(O)c(O)c12", "cell-cell fusion (z-score)": "inactive: 0.419"}
{"smiles": "CC(=O)SCC(Cc1ccccc1)C(=O)NCC(=O)OCc1ccccc1", "note": "(stereo not drawn)", "cell-cell fusion (z-score)": "inactive: 1.96"}
{"smiles": "COc1cc2ncnc(Nc3ccc(Oc4ccccc4)cc3)c2cc1OC", "cell-cell fusion (z-score)": "inactive: 1.9"}
{"smiles": "CCOc1cc(C=O)ccc1O", "cell-cell fusion (z-score)": "inactive: -0.0994"}
{"smiles": "CC1(C)O[C@@H]2CC3C4CCC5=CC(=O)C=C[C@]5(C)[C@@]4(F)[C@@H](O)C[C@]3(C)[C@]2(C(=O)CO)O1", "note": "(stereo partly drawn)", "cell-cell fusion (z-score)": "inactive: -0.992"}
{"smiles": "CCS(=O)(=O)N1CC(CC#N)(n2cc(-c3ncnc4[nH]ccc34)cn2)C1", "note": "[Baricitinib]", "cell-cell fusion (z-score)": "inactive: -0.422"}
{"smiles": "COC(=O)Nc1nc2ccc(Sc3ccccc3)cc2[nH]1", "cell-cell fusion (z-score)": "inactive: 3.23"}
{"smiles": "CC(C)(O)C(Cl)(Cl)Cl", "cell-cell fusion (z-score)": "inactive: 2.81"}
{"smiles": "CNCCNS(=O)(=O)c1cccc2cnccc12.Cl.Cl", "note": "[H-8 dihydrochloride]", "cell-cell fusion (z-score)": "inactive: 2.7"}
{"smiles": "CN1[C@H]2C[C@H](OC(=O)[C@H](CO)c3ccccc3)C[C@@H]1[C@@H](O)C2", "note": "(racemic) [(+/-)-Anisodamine]", "cell-cell fusion (z-score)": "inactive: 2.46"}
